The assay can be described thus: IkB Signaling. To be noted: ABC-DLBCL IkBa-CBG/CBR dual luciferase ratio (green luciferase fused to IkBa over red control in OCI-Ly3 lymphoma cells), 4 h. In outline: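 Luminescence ratio of IκBα-fused green versus native red beetle luciferase in OCI-Ly3 cells, 4 h post-doxycycline with compound; red signal alone, scaled from basal (0%) to zero light (-100%), flagged nonspecific or cytotoxic effects.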
Setting [1] is: measured here: control luc red channel unless noted.
Setting [2] is: measured here: IkB-luc green channel.
The mark [3] stands for this setting: measured here: control luc red channel.

This is one part of the list. Further columns of the screen follow, without active or inactive calls. Compounds called inactive in the main read-out are mostly missing here. Potencies come from curve fits of mixed quality, noted in brackets.

By AC50 is commonly meant the concentration at which the activity in the assay is half-maximal.

As to `O=C(Cn1c(=O)oc2cc(S(=O)(=O)NCc3ccccc3)ccc21)Nc1cccc(F)c1`, the AC50 under setting [1] was 15.8 µM [falling, single point].
In the case of `COc1cc(C)nc(N(Cc2ccccc2)S(=O)(=O)c2ccccc2)n1`, under setting [1], the AC50 was 20 µM [falling, partial curve, poor fit].
For `COc1cc(OC)cc(C(=O)Nc2ccc(-c3nc4ccccc4s3)cc2C)c1`, the AC50 under setting [1] is 1 µM [rising, full curve].
On to `Cc1cc(C)n(-c2nc(C)c(C)c(=O)n2CC(=O)Nc2ccc([N+](=O)[O-])cc2)n1`, for which, under setting [1], the half-maximal activity concentration (AC50) is 6.31 µM [rising, single point].
Turning to `CC(=O)N1CCc2cc(S(=O)(=O)NCCC(=O)N3CCc4ccccc4C3)ccc21`, under setting [1], the AC50 was 25.1 µM [falling, partial curve].
`COCC(=O)n1nc(-c2ccco2)nc1NCc1ccccc1Cl`: under setting [1], the half-maximal activity concentration (AC50) was 15.8 µM [falling, partial curve].
Consider `COc1ccccc1CNC(=O)CCc1c(C)c2cc3c(C)c(C)oc3cc2oc1=O`, for which the AC50 under setting [1] is 39.8 µM [falling, single point].
For `COc1ccc(CCNC(=O)c2ccc3c(c2)N(Cc2ccc(F)cc2)C(=O)c2ccccc2S3(=O)=O)cc1OC`, the AC50 under setting [1] is 6.31 µM [rising, partial curve, poor fit].
As to `Cc1c(C(=O)Nc2cccc(C(F)(F)F)c2)sc2nc[nH]c(=O)c12`, under setting [1], the AC50 was 25.1 µM [falling, single point].
With `Cc1ccc(-n2ncc3c(NCCCN4CCOCC4)ncnc32)cc1C`, under setting [1], the AC50 was 39.8 µM [falling, single point].
For `COCc1nnc(NC(=O)c2cc(OC)c(OC)c(OC)c2)s1`, the half-maximal activity concentration (AC50) under setting [1] was 39.8 µM [falling, single point].
For the compound `COc1ccc(C(=O)/C=C/c2cn(CC(O)CN3CCc4ccccc43)c3ccccc23)cc1OC` (stereo unspecified), the AC50 under setting [1] was 10 µM [falling, partial curve].
Take `Cc1ccccc1C(=O)N1CCN(c2ccc(NC(=O)c3ccco3)cc2Cl)CC1`: the AC50 was 15.8 µM [falling, partial curve] under setting [2] and 20 µM [falling, partial curve] under setting [3].
Turning to `Cc1ccc(-n2c(C)cc(C(=O)OCC(=O)N(CC(C)C)C3CCS(=O)(=O)C3)c2C)cc1` (stereo unspecified), the AC50 under setting [1] was 7.94 µM [falling, partial curve].
`COCCn1c(=O)cnc2cnc(Nc3cccc(OC)c3)nc21`: the AC50 is, setting by setting: under setting [2], 3.16 µM [falling, partial curve]; under setting [3], 5.01 µM [falling, partial curve].
Consider `CCc1ccccc1NS(=O)(=O)c1ccc2[nH]cc(C(=O)N(CC(C)C)CC(C)C)c(=O)c2c1`, for which the AC50 under setting [1] was 20 µM [falling, partial curve].
As for `O=C(COC(=O)c1cncc(Br)c1)NCc1ccco1`, under setting [1], the AC50 was 25.1 µM [rising, single point] [measured here: IkB-luc green channel].
Same read-out and setting: the result for `COc1ccc(OC)c(C(=O)CC2(O)C(=O)N(Cc3ccccc3C)c3ccccc32)c1` (stereo unspecified) reads 39.8 µM [falling, single point]; that for `CCOc1ccccc1CNC(=O)CCc1c(C)nn(-c2ccc(N3CCCC3)nn2)c1C`, 10 µM [falling, single point].
With `Cc1ccc(S(=O)(=O)C2(C(=O)Nc3ccc(Cl)c(C(F)(F)F)c3)CC2)cc1`, the AC50 under setting [1] is 10 µM [falling, partial curve].
For the compound `Cc1ccc(/C=C(\C#N)c2nc(-c3ccc(-c4ccccc4)cc3)cs2)cc1`, under setting [1], the AC50 was 0.631 µM [falling, full curve].
For `COC(=O)c1ccc(Cl)cc1NC(=O)NCCc1c(C)nn(C)c1C`, the AC50 under setting [1] was 10 µM [falling, partial curve].
On to `COc1ccccc1CNC(=O)Cn1c(=O)nc(-c2ccccc2F)c2cc(Cl)ccc21`, for which, under setting [1], the AC50 was 25.1 µM [falling, partial curve].
Take `Cc1ccc(-n2c(=O)c3cccnc3n2CC(=O)Nc2cc(C)cc(C)c2)cc1`: under setting [1], the AC50 is 20 µM [falling, single point].
In the case of `Clc1ccccc1-c1nnc2sc(-c3ccc4c(c3)OCO4)nn12`, the AC50 under setting [1] is 10 µM [falling, partial curve].
In the case of `COc1ccc(-n2ccnc2SCC(=O)Nc2ccc3c(c2)OCO3)cc1`, under setting [1], the AC50 is 0.0794 µM [falling, partial curve, poor fit].
`CCCC(c1nnnn1Cc1cccs1)N1CCN(c2nc3ccccc3s2)CC1` (stereo unspecified): under setting [1], the AC50 is 12.6 µM [falling, partial curve].
With `Cc1cccc(N2CCN(C(=O)CCn3c(=S)[nH]c4cc5c(cc4c3=O)OCO5)CC2C)c1` (stereo unspecified), under setting [1], the AC50 is 5.01 µM [falling, full curve].
Consider `Cc1ccc(Cl)cc1N1CCN(C(=O)C2CCC(CNS(=O)(=O)c3cccs3)CC2)CC1` (stereo unspecified), for which the AC50 under setting [1] was 10 µM [falling, partial curve].
The same measure, in the same setting: the result for `CCOC(=O)c1c(C)[nH]c(C)c1S(=O)(=O)N1CCC(C(=O)Nc2cc(C)ccn2)CC1` reads 25.1 µM [falling, partial curve]; that for `COc1cccc(C(=O)N2CCC(C(=O)Nc3cccc(Cl)c3)CC2)c1`, 12.6 µM [falling, partial curve]; that for `COc1cc(C(=O)Nc2ccc(NC(=O)c3ccc(C(C)(C)C)cc3)cc2)cc(OC)c1OC`, 7.94 µM [falling, full curve].
On to `NC(=O)c1ccccc1-c1nc(-c2ccccc2)no1`, for which the AC50 under setting [1] is 12.6 µM [falling, partial curve].
As to `COc1ccccc1C(=O)Nc1ccc2nc(SCCOc3ccccc3C)sc2c1`, under setting [1], the AC50 was 1 µM [falling, full curve, poor fit].
Still for that read-out and setting: the result for `N#C/C(=C\c1ccc(O)c(O)c1)C(=O)NCCCCc1ccccc1` reads 31.6 µM [falling, partial curve]; that for `COc1ccc2c(c1)c(=O)oc1cc(OCC(=O)N3CCCC(C)C3)ccc12` (stereo unspecified), 31.6 µM [falling, single point].
For `COc1cccc(C(=O)Nc2nc3nc(-c4ccccc4)cc(=O)n3[nH]2)c1`, the AC50 under setting [1] was 20 µM [falling, single point].
With `O=C(Cn1c(=O)nc(-c2ccccc2)c2ccccc21)NCCc1ccccc1`, the AC50 under setting [1] is 39.8 µM [falling, single point].
As for `Cc1cc(-c2ccccc2)n2nc(-c3ccccc3)cc2n1`, under setting [1], the AC50 was 20 µM [falling, partial curve].

For the origin of these results see PubChem BioAssay AID445 (National Center for Advancing Translational Sciences (NCATS), 2006).
